This is an account of results in article PMC9034290.

Protein sequences, listed by entry. Tags and fused reporters are not part of them. Lines headed by an entry give the natural chain unless they say otherwise; changes in a name come on top.
UniProt Q57W66: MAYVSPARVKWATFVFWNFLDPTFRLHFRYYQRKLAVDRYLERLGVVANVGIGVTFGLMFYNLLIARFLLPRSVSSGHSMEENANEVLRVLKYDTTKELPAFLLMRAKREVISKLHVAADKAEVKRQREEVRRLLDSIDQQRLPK
UniProt Q38AG1: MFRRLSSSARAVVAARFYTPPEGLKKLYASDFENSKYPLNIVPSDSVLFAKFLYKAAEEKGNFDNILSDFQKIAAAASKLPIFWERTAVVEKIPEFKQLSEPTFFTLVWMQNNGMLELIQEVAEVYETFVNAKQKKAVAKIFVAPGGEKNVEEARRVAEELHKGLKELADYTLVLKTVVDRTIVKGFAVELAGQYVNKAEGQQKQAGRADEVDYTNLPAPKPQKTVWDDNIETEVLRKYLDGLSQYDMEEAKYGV
UniProt Q57ZW9: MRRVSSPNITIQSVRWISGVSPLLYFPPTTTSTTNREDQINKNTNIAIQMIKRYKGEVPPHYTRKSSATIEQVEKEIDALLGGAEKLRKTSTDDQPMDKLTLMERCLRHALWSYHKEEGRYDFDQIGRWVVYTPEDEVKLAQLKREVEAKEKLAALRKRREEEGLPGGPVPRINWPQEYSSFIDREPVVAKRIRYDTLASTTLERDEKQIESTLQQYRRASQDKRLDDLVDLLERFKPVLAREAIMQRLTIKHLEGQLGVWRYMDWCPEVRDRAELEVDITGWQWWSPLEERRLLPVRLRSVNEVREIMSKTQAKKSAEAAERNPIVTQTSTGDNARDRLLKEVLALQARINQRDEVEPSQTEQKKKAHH
UniProt Q389Z3: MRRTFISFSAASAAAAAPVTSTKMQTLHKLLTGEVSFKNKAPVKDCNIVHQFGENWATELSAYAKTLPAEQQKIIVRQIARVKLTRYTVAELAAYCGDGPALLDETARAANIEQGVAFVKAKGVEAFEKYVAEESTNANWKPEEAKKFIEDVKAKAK
UniProt Q385E4: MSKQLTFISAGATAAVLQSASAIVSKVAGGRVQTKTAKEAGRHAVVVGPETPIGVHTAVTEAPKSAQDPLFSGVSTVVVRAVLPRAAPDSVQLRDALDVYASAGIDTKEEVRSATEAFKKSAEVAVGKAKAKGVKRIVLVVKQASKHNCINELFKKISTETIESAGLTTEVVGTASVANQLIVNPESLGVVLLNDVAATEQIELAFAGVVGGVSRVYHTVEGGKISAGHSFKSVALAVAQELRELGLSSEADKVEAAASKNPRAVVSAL
UniProt Q38DZ5: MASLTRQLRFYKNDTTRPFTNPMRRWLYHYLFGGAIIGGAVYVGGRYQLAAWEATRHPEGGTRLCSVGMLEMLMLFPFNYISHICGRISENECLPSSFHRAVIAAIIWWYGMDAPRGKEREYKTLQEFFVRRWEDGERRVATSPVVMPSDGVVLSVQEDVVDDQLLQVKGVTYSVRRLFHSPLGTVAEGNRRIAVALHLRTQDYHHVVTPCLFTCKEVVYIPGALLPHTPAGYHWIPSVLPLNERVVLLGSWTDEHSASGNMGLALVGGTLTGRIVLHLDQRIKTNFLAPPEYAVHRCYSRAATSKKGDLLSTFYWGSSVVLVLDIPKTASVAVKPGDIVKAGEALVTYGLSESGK
UniProt Q586C1: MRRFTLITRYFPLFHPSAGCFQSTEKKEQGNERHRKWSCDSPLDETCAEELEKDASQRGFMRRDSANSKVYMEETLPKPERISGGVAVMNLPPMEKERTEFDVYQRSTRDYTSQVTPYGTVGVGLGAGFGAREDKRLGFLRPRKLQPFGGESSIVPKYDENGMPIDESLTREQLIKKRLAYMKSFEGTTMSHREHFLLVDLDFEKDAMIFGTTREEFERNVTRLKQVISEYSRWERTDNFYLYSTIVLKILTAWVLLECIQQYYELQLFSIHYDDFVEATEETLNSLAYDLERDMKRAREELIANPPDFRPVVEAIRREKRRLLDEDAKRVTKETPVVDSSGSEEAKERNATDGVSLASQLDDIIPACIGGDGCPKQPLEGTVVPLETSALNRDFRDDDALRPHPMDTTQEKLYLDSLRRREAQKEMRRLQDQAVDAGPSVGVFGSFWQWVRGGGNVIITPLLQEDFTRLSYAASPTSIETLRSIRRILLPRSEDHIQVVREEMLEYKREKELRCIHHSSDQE
UniProt Q585V6: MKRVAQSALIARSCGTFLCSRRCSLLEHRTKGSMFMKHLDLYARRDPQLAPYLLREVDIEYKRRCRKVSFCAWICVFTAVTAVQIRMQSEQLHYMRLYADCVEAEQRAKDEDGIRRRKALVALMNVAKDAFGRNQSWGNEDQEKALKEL
UniProt Q38CI8: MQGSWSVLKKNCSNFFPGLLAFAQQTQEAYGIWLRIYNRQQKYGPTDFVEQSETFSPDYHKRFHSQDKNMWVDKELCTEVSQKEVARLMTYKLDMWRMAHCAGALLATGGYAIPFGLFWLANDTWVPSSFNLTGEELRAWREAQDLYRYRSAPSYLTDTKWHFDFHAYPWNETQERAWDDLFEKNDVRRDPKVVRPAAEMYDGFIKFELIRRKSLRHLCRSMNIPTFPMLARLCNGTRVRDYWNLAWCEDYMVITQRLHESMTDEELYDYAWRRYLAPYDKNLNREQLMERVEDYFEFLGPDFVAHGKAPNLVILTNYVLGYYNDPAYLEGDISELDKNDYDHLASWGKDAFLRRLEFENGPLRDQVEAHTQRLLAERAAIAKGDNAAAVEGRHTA
UniProt Q581Q5: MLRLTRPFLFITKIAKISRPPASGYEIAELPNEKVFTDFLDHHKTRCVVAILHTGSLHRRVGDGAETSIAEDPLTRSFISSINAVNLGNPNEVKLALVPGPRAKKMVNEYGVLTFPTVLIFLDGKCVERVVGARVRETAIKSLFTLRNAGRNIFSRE

Results are given in words; binding and its absence hold for the method and conditions named. In cells and extracts the contact can be indirect. A yes stands for co-enrichment or nearness to the bait. Other partners may have been found.

The test addresses C-terminally myc-tagged Tb927.8.3070 (T. brucei) (UniProt Q57W66). Nature of the test: affinity purification with mass spectrometry; SILAC; anti-c-myc affinity gel IP of Tb927.8.3070-myc, cells induced with tetracycline for 1 day and mixed with uninduced cells; 1% digitonin, 20 mM Tris-HCl pH 7.4, 0.1 mM EDTA, 100 mM NaCl, 25 mM KCl, 2 h at 4 °C; eluates analysed by quantitative LC-MS, three replicates.

With “oligomycin sensitivity-conferring protein (from UniProt Q38AG1)”, the binding result is recorded as “binds”.

On to ATPTB2 (from UniProt Q57ZW9), for which the binding result is listed as “binds”.

For ATPTB4 (from UniProt Q389Z3), the binding entry is recorded as “binds”.

For ATPTB3 (from UniProt Q385E4), the binding entry is recorded as “binds”.

Regarding “phosphatidylserine decarboxylase (from UniProt Q38DZ5) (enzyme)”, the binding entry is “binds”.

Regarding Tb927.2.5930 (from UniProt Q586C1), the binding entry was “binds”.

Regarding Tb927.2.5140 (from UniProt Q585V6), the binding entry is on record as “binds”.

ATPTB1 (from UniProt Q38CI8): the binding result is listed as “binds”.

With “cardiolipin-dependent protein 17 (from UniProt Q581Q5)”, the binding entry is “binds”.
